According to patent US20100197602A1, “USE OF FOLLICULAR GONADOTROPIN RELEASING PEPTIDE AS A THERAPEUTIC AGENT IN THE TREATMENT OF STREPTOCOCCUS PNEUMONIAE INFECTION” (priority 2007, published 2010):
Not every detail of the peptide structures is certain; ends, links or a residue may be inferred. Residues, ends and D or L forms follow the SMILES beside them.

Key:
Type in all cases: cell-based
HIV-1IIIB = experiment: HIV-1 antiviral assay (CPE reduction, MTS); details: peptide 10 micrograms per ml, 6 days post-infection
HCMV strain AD169 = experiment: HCMV plaque reduction assay; details: HCMV AD169 in MRC-5 cells; peptide 10 micrograms per ml; 7-10 days
Source text: Ganciclovir was used as positive control.

[1] = test system: hepatitis B virus (HBV) ayw strain; experiment: HBV experimental assay system (secreted HBV DNA, TaqMan PCR); details: HepG2-2.2.15 cells; peptide 10 micrograms per ml; six days; HBV DNA in supernatant

With `C[C@@H](O)[C@H](N)C(=O)N[C@@H](CC(=O)O)C(=O)N[C@H](C(=O)N[C@@H](CO)C(=O)N[C@@H](Cc1c[nH]cn1)C(=O)N[C@@H](Cc1c[nH]cn1)C(=O)N[C@@H](CC(=O)O)C(=O)N[C@@H](CCC(N)=O)C(=O)N[C@@H](CC(=O)O)C(=O)N[C@@H](Cc1c[nH]cn1)C(=O)N1CCC[C@H]1C(=O)N[C@H](C(=O)N[C@@H](Cc1ccccc1)C(=O)N[C@@H](CC(N)=O)C(=O)O)[C@@H](C)O)[C@@H](C)O` [FGRP, Thr-Asp-Thr-Ser-His-His-Asp-Gln-Asp-His-Pro-Thr-Phe-Asn-OH] (H-TDTSHHDQDHPTFN-OH) the “% CPE reduction in HIV-1 infected CEM-SS cells” value (HIV-1IIIB) was 0.0%, the “% plaque reduction” value (HCMV strain AD169) was 2.5% and the “% inhibition of HBV replication in HEP G2 cells” value [1] was 0.0%.
